Reference: article PMC10963788
No constants are given. Whether binding was seen depends on the method and setting. For some assays here: Binding can be weak; no strength is given. Tags and fused reporters may be left off the sequences shown.

The chains behind the UniProt entries cited, without tags or fusion partners. Where a name states a change or a piece, a line headed by the entry shows the natural chain unless it says otherwise.
UniProt O75396: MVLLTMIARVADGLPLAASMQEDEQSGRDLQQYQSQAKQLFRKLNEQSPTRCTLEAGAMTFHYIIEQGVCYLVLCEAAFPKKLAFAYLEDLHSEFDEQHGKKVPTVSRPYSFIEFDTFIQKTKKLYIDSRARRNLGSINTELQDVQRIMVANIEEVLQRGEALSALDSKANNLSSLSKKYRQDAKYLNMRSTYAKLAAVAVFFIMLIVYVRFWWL
UniProt Q13277: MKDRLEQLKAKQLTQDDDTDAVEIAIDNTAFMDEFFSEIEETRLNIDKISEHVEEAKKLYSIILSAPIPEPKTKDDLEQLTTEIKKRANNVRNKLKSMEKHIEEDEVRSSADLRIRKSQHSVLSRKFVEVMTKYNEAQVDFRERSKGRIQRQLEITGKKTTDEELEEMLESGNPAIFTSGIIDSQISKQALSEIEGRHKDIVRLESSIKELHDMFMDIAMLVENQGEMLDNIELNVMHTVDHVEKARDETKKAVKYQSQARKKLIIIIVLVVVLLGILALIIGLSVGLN

Key:
[1] = biological target: T1, Flag-FKBP51-His (UniProt Q13451); assay: pull-down; 200 ng Flag-FKBP51-His as bait on BSA-blocked antibody-conjugated protein G Dynabeads; 100 ng SEC22B-HIS; 400 μl binding buffer (Promega, V870B); eluted at room temperature and at 95 °C; both purified
T1 sequence: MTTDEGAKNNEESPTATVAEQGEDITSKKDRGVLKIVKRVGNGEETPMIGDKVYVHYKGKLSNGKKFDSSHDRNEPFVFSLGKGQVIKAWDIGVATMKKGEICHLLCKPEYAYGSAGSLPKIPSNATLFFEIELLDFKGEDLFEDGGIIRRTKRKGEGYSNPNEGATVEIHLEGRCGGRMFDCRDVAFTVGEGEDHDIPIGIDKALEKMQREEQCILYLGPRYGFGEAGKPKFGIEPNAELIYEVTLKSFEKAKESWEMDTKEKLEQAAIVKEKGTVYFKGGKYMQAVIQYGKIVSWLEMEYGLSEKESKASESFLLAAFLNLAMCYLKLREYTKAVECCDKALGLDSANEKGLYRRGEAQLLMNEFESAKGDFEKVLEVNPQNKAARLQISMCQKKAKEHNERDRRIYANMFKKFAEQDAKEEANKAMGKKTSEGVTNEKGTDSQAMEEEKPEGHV

[2] = biological target: T2, HIS-SKA2 (Abcam, AB199577-1001) (UniProt Q8WVK7); assay: pull-down; HIS pull-down: 200 ng HIS-SKA2 immobilised on BSA-blocked anti-His protein G Dynabeads; 100 ng purified DDK-tagged protein; 400 μl binding buffer (Promega, V870B); eluted at room temperature and at 95 °C; western blot against HIS and FLAG; both purified
T2 sequence: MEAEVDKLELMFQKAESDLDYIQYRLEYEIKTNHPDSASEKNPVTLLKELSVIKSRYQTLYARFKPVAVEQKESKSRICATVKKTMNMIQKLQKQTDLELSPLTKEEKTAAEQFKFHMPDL

binding [1] | binding [2] | Substance
binds | – | SEC22B-HIS (Origene, AR50533PU-S) (from UniProt O75396)
– | no binding (tested: 100 ng in 400 μl) | Syntaxin3-DDK (Origene, TP300658) (from UniProt Q13277)
